Data source: PubChem BioAssay AID686943 (Drosophila RNAi Screening Center, 2013)
In all, the deposit lists about 23,000 reagents; below is a random part of those with a known target gene and a result. 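Extra replicates exist only for a retested subset of genes; insulin dose and duration not given; both raised and lowered dpERK matter.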 Further read-outs or replicates are left out here. The record does not give: the amount of reagent, the time to read-out.

Screen: 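Fly genes whose loss alters ERK activation after insulin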 (primary screen)
Cells: Drosophila S2R+ haemocyte-like cells expressing YFP-tagged ERK (Rolled)
Knock-down reagent: long dsRNA against Drosophila genes
Treatment: insulin stimulation versus unstimulated cells; dose and duration not given
Read-out: 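Antibody staining for doubly phosphorylated ERK divided by ERK-YFP signal, as plate z-scores, in insulin-treated and untreated cells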
Reading the numbers: replicate 1, z-score of dpERK with insulin: higher = more active ERK per ERK-YFP after insulin

Mef2 [DRSC07468]
- replicate 1, z-score of dpERK with insulin: 0.68

CG7707 [DRSC10903]
- replicate 1, z-score of dpERK with insulin: 0.87

CG40948 (retired record) [DRSC20944]
- replicate 1, z-score of dpERK with insulin: -1.43

CG15282 [DRSC22620]
- replicate 1, z-score of dpERK with insulin: -1.22

Cyp9f3 [DRSC16636]
- replicate 1, z-score of dpERK with insulin: -0.13

sm [DRSC05795]
- replicate 1, z-score of dpERK with insulin: 0.08

sm [DRSC07686]
- replicate 1, z-score of dpERK with insulin: 0.9

Lamp1 [DRSC03727]
- replicate 1, z-score of dpERK with insulin: 0.51

Teh3 [DRSC08537]
- replicate 1, z-score of dpERK with insulin: 1.2

Cpr66D [DRSC10640]
- replicate 1, z-score of dpERK with insulin: -0.74

Cpr66D [DRSC10646]
- replicate 1, z-score of dpERK with insulin: -0.59

P5cr-2 [DRSC15889]
- replicate 1, z-score of dpERK with insulin: -0.31

pths [DRSC03171]
- replicate 1, z-score of dpERK with insulin: 0.08

CG8460 [DRSC03090]
- replicate 1, z-score of dpERK with insulin: -0.32

CG15877 [DRSC08485]
- replicate 1, z-score of dpERK with insulin: 0.47

Shab [DRSC08013]
- replicate 1, z-score of dpERK with insulin: -0.14

Shab [DRSC08643]
- replicate 1, z-score of dpERK with insulin: 0.82

Shab [DRSC08699]
- replicate 1, z-score of dpERK with insulin: -1.27

Cyp12a5 [DRSC16621]
- replicate 1, z-score of dpERK with insulin: -0.05

CG31809 [DRSC01561]
- replicate 1, z-score of dpERK with insulin: -0.78

Boh1 [DRSC14487]
- replicate 1, z-score of dpERK with insulin: 0.18

Gdi [DRSC03330]
- replicate 1, z-score of dpERK with insulin: 0.26

CG33339 [DRSC22917]
- replicate 1, z-score of dpERK with insulin: 0.49

CG18190 [DRSC06714]
- replicate 1, z-score of dpERK with insulin: 0.17

Alg7 [DRSC02833]
- replicate 1, z-score of dpERK with insulin: -0.43

Alg7 [DRSC02834]
- replicate 1, z-score of dpERK with insulin: -0.37

CG30054 [DRSC05354]
- replicate 1, z-score of dpERK with insulin: -0.07

GNBP1 [DRSC11169]
- replicate 1, z-score of dpERK with insulin: 0.51

GNBP1 [DRSC21836]
- replicate 1, z-score of dpERK with insulin: 0.14

fog [DRSC20646]
- replicate 1, z-score of dpERK with insulin: 0.5

Acp53C14c [DRSC05626]
- replicate 1, z-score of dpERK with insulin: -0.8

CG14137 [DRSC10142]
- replicate 1, z-score of dpERK with insulin: 0.6

CG2938 [DRSC18243]
- replicate 1, z-score of dpERK with insulin: 0.23

CG15172 [DRSC02473]
- replicate 1, z-score of dpERK with insulin: 0.89

ppk7 [DRSC03236]
- replicate 1, z-score of dpERK with insulin: 0.53

teq [DRSC10298]
- replicate 1, z-score of dpERK with insulin: -1.19

teq [DRSC11301]
- replicate 1, z-score of dpERK with insulin: -0.03

teq [DRSC11302]
- replicate 1, z-score of dpERK with insulin: -0.61

ND-24L [DRSC10650]
- replicate 1, z-score of dpERK with insulin: 0.68

TBC1D23 [DRSC00657]
- replicate 1, z-score of dpERK with insulin: 0.07

2 entries already listed, arranged by “replicate 1, z-score of dpERK with insulin”, ascending:
CG8460 [DRSC03090]
- replicate 1, z-score of dpERK with insulin: -0.32

CG15877 [DRSC08485]
- replicate 1, z-score of dpERK with insulin: 0.47
